# According to the supplement of paper PMC3334620:
# The full ranking holds about 33,000 sequences; the median of “E-score (-0.5 to 0.5)” is about -0.0034, and the highest 2% start at about 0.25. Some of the results follow.
# Molecular target: T1, Yap3 (UniProt P38749)
# T1 sequence: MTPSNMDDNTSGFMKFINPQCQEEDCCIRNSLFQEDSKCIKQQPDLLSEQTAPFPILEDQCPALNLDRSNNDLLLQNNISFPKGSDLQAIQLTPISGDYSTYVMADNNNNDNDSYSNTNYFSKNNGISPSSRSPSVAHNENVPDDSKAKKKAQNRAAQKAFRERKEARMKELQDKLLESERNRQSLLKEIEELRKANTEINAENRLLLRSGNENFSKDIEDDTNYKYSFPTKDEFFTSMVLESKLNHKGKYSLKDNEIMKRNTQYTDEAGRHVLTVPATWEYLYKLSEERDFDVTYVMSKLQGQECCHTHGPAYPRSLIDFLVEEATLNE
# Test: PBM E-score (8-mer binding enrichment) (E-score (-0.5 to 0.5)); higher = stronger / more preferred TF binding
# Settings: protein concentration: 100 nM; construct: GST-full length
# Method in brief: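 The E-score, a modified Wilcoxon-Mann-Whitney statistic, was computed by the Universal PBM Analysis Suite for every ungapped eight-base word pooled with its reverse complement. Scans behind it were normalised with masliner after bound GST-tagged yeast transcription factors were detected with fluorescent anti-GST. The proteins, at about 100-200 nM, had been applied to universal all-10-mer Agilent arrays made double-stranded by primer extension.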
row,Sequence,PBM E-score
1,CAAAAGAG,0.0429
2,AATCGGCA,0.159
3,CCAGCCCG,-0.258
4,TCTTTCCA,-0.0501
5,CCTACAGG,-0.225
6,ATAACAAG,0.228
7,AAAGGTAA,0.0127
8,AATTCAAC,0.153
9,CGATGGAC,-0.0566
10,ATATTTGG,0.197
11,CTCCGGAA,-0.108
12,ACTATCCG,0.164
13,GACTACGC,-0.139
14,AGCGTAAT,0.122
15,ATTTACTC,0.191
16,TAAACCAA,0.0441
17,ACGGGCCG,-0.187
18,AGGATGTG,0.0295
19,TCCAGTCA,-0.168
20,GATTTAGC,0.0449
21,CGGCTGCC,-0.211
22,GACGTCCC,-0.168

row,Sequence,PBM E-score
1,AGAACATG,0.0504
2,CGGTATCA,0.0719
3,CCAACGGG,-0.0913
4,TGCTTAAA,0.0707
5,GCCCTTCA,-0.186
6,CATGTATC,0.155
7,AGGTCGGA,-0.0278
8,AGTAGGGG,0.0208
9,AGTCTTCA,-0.0504
10,AACGAGGC,-0.162
11,AAAGTTGT,0.172
12,ATTATGAG,0.117
13,ATCCACAG,0.00624
14,ATTAGACG,0.104
15,ATTGAATA,0.256
16,CGAACGGC,-0.038
17,GGCTGTGA,-0.0277
18,GAGCAACC,-0.0218
19,GGAGACCC,-0.273
20,GCATGACA,-0.0537
21,ATAGACAT,0.0285
22,CTTCGGCC,-0.0359

# A few values from the entries so far.
# For PBM E-score, ATAGACAT reads 0.0285
# For PBM E-score, GCCCTTCA reads -0.186
# For PBM E-score, AACGAGGC reads -0.162

# (further entries)

row,Sequence,PBM E-score
1,AACCAAAT,0.128
2,CTGCGTTA,-0.0516
3,GATTGCCA,-0.0247
4,ATTGCGAG,0.0202
5,AATCGACA,0.258
6,ACTCGTCG,-0.00308
7,TATTTTCA,0.168
8,AGCTACCT,-0.111
9,TCTGGGAA,-0.0103
10,GTTCTAGA,-0.0536
11,AGCTTTTG,0.103
12,TCGTCGAA,0.0355
13,CTGCTCCA,-0.0981
14,ATGTCATA,0.129
15,GCCACCAA,0.0305
16,CACACCAA,0.148
17,CGAGCGCG,-0.0148
18,ACTCAGGG,-0.186
19,AGTACAAC,0.0259
20,CACTAGGG,-0.194
21,GGACACAC,-0.135
22,AAGTATAG,-0.00453

row,Sequence,PBM E-score
1,CAATGCGG,0.0466
2,CCTAGTTC,0.0518
3,CCATGACC,-0.0644
4,AGAGCGTG,-0.128
5,AGCCGCGC,0.0348
6,AGATGCCA,-0.107
7,CCTTCCAG,-0.131
8,GGCCCGCA,-0.18
9,AATGAAGA,0.209
10,CACAAGGG,-0.159
11,AGGTGGCC,-0.23
12,AGTGGGAC,-0.157
13,ATAAGTAG,0.0145
14,ACACAGGT,-0.0434
15,CTTATCTA,0.198
16,ATGCGAAA,0.13
17,AATTACGA,0.33
18,CCTTGACG,-0.198
19,GAGTCTTA,-0.139
20,GGTCTCCA,-0.0615
